Article doi:10.1101/2025.02.22.639629 (bioRxiv, 2025)
Results are given in words; binding and its absence hold for the method and conditions named. Some entries that bind do so weakly or less than the wild type. Blank lines part the entries; values can stand above or below the molecule they belong to.

Amino acid sequences for entries named in this document (tags omitted). Residues count along the entry.
UniProt Q9NPH3, residues 21-367: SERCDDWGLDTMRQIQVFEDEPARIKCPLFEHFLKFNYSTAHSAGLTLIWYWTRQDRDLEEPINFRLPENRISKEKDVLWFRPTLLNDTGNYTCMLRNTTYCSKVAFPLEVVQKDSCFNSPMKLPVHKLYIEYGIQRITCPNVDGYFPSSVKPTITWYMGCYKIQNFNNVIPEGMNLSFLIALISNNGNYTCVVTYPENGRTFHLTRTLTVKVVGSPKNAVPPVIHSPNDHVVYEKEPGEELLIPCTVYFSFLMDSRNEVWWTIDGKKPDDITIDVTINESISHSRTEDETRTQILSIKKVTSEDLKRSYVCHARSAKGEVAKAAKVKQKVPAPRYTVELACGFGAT

Legend:
[1] = molecular target: T1, IL-37:IL-36R binary complex (human) (UniProt Q9NZH6+Q9HB29); experiment: ITC
T1 sequence (chain, N-glycosylated) 1: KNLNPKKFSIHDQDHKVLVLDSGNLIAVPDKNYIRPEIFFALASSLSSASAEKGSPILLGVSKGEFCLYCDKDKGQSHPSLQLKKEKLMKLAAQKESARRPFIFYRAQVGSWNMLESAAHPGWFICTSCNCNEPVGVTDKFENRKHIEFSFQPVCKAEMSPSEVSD
T1 sequence (chain, N-glycosylated) 2: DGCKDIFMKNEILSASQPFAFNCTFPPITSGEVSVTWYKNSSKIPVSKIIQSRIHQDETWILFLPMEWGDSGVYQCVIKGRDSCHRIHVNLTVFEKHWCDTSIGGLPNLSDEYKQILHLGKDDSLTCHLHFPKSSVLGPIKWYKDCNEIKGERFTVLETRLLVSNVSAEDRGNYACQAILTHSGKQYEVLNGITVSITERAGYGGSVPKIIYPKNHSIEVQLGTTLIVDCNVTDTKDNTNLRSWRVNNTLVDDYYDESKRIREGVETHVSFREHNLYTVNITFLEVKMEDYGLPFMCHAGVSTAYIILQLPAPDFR

[2] = molecular target: IL-36γ R121A (human) (UniProt Q9NZH8); experiment: SEC-MALS

binding [1]: no binding (tested: 427 µM)
Molecule: IL-1RAcP extracellular domain (residues 1-367) (from UniProt Q9NPH3 21-367) (receptor)

binding [2]: binds weakly
B1: IL-36γ R121A (ligand, UniProt Q9NZH8 18-169)
chain: SMCKPITGTINDLNQQVWTLQGQNLVAVPRSDSVTPVTVAVITCKYPEALEQGRGDPIYLGIQNPEMCLYCEKVGEQPTLQLKEQKIMDLYGQPEPVKPFLFYAAKTGRTSTLESVAFPDWFIASSKRDQPIILTSELGKSYNTAFELNIND
